Test system: mouse IgG anti-AFP
Assay: Labelling of mouse IgG anti-AFP with dipyrrometheneboron difluoride dyes
Format: physicochemical
Details: determined spectrophotometrically; 10 fold excess of label
Experimental: To the solution of 1.5 mg (9.3 nmol) of mouse IgG anti-AFP in 400 μl phosphate buffered saline (10/150 mM, pH 7.4) a 10 fold excess (93 nmol) of compound 2, 4, 5 or 6 in anhydrous N,N-dimethylformamide was added. 40 μl of NaHCO3 (1 M, aq) was added and the mixture was incubated at room temperature for 2 h. The products were purified with NAP-5 gel filtration column (Amersham Pharmacia Biotech, Uppsala, Sweden) using phosphate buffered saline (50/150, 10 mM NaN3, pH 7.4) as eluent. The fast moving coloured fractions were collected. […] The labelling degrees of these protein conjugates (compound 4 and 6) were determined spectrophotometrically. Labelling degrees of 2.1 (compound 4) and 2.3 (compound 6) fluorophores per protein were obtained.

Q: For “Glu-Tau-succinimide derivative of 4,4-difluoro-5-(2-pyrrolyl)-1,3-dimethyl-4-bora-3a,4a-diaza-s-indacene-2-propionic acid [compound 6]”, which labelling degree is on record?
A: 2.3 fluorophores per protein

Q: For “Glu-Tau-succinimide derivative of 4,4-difluoro-5-(2-thienyl)-1,3-dimethyl-4-bora-3a,4a-diaza-s-indacene-2-propionic acid [compound 4]”, which labelling degree is on record?
A: 2.1 fluorophores per protein
